Reference: paper PMC6078311, “Localization and functional characterization of the pathogenesis-related proteins Rbe1p and Rbt4p in Candida albicans” (PLoS ONE, 2018)
These are yes or no findings as the source states them, for the method shown. In cells and extracts the contact can be indirect. These calls come from enrichment with a bait or labelling near it, and not all partners need be listed. Sequences can lack the tags named with a protein.

Biological target: Rbe1p with a C-terminal V5/His6-tag (Candida albicans) (UniProt Q59ZX3)
Assay: affinity purification with mass spectrometry; V5-tag affinity purification from the DTT-sensitive cell wall fraction of C. albicans yeast cells; elution separated by SDS-PAGE, Coomassie-stained ~135 kDa band excised and analysed by Nano-LC-MS/MS, compared with the untagged control strain

B1: Rbe1p with a C-terminal V5/His6-tag (protein, UniProt Q59ZX3 20-271)
chain: ATITKFFTASTQTLFVTQTSQTVVATKSFVETIYSAPPKQLTSKTQDSTSPTTSSVNSLTSSSATSYVETTTPAPSSSTLTTSTISSSTASEDSDATPTADVEFAEEILKEHNVKRALHGVPALSWSNKLAEYAQDYANTGFDCSNLNLKHSGGPYGENLAAGYMGGISPVDAWYDEISMVDWNNVDFTESTGHFTQLVWRSTTQVGCAKMMCSTAWRQITVCEYLPRGNVIGLNVTSGHSYFVDNVLPPLK
modifications: O-glycosylated and N-glycosylated (sites not given)
In the case of B1, the binding is reported as “binds”.
